# Laboratory results published in the supplement of paper PMC3334620.
# Over roughly 33,000 sequences, “E-score (-0.5 to 0.5)” has its median near -8e-05; the highest 2% begin near 0.23. The list shows a part of the results.
# Target: T1, Nrg2 (UniProt P38082)
# T1 sequence: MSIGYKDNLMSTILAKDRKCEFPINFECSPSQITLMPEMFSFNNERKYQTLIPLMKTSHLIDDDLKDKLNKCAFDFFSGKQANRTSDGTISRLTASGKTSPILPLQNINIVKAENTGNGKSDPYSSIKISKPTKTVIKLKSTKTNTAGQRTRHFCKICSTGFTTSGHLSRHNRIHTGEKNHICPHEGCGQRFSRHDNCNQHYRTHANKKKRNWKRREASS
# Assay: PBM E-score (8-mer binding enrichment) (E-score (-0.5 to 0.5)); higher = stronger / more preferred TF binding
# Conditions: protein concentration: 100 nM; construct: GST-full length
# Procedure, shortened: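 Masliner-normalised scans of fluorescent anti-GST signal were the basis for scoring. That signal came from GST-tagged yeast transcription factors applied at about 100-200 nM to double-stranded universal all-10-mer Agilent arrays on fresh or once-stripped slides. Each ungapped eight-base word, pooled with its reverse complement, received an E-score from the Universal PBM Analysis Suite.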
row,Sequence,PBM E-score
1,CCTAGTCA,-0.0951
2,AAAGTGAC,-0.072
3,GTCAAAAA,-0.0378
4,CTTCGAGA,-0.00769
5,GCTTGGCA,-0.0882
6,ACTGGCCT,-0.0393
7,TAAATATA,0.144
8,CGCTGATA,-0.0682
9,ACGGCTGG,-0.0521
10,ATGACATG,-0.06
11,CAGAGTAG,0.1
12,AGGTACGG,-0.131
13,ACAGGCGG,0.021
14,ATGAACCA,0.187
15,ATCAGCAT,0.0775
16,AAAAGTTT,-0.0494
17,ACGAGGAG,0.0902
18,AAGTGGGC,0.0154
19,CCCTACGA,0.0112
20,CGACCTCA,-0.0396
21,CATGTGTC,-0.0154
22,CCCAGAGA,-0.0625

# Four consecutive entries from above, quoted:
row,Sequence,PBM E-score
11,CAGAGTAG,0.1
12,AGGTACGG,-0.131
13,ACAGGCGG,0.021
14,ATGAACCA,0.187

# Remaining list, next part:

row,Sequence,PBM E-score
1,ACCATACC,-0.0923
2,AATATACC,0.0724
3,AGACTCGG,-0.318
4,ACTCCTAC,-0.0656
5,GCATAAGC,0.0163
6,CTGCCCAC,-0.164
7,ACCACTCT,0.0195
8,ACGTCGAC,-0.0107
9,ATACCAAG,0.13
10,CAACATTA,0.133
11,CCTACTAA,-0.023
12,TGCGAGAA,-0.022
13,CGAGCCCG,-0.0355
14,CCGGTTCC,-0.0579
15,ACTTATCG,0.0251
16,CCTGGCAG,-0.00758
17,CCGTGGAA,-0.00678
18,ACTGCAAA,0.0615
19,TATGCTGA,-0.0222
20,CCCTAACC,-0.0294
21,CTGGACGA,-0.126
22,AGCAAAAT,0.0735

row,Sequence,PBM E-score
1,CGTGGGCC,-0.0731
2,CGGAACAA,0.122
3,AAAACGGC,0.112
4,AGTCGGTC,-0.114
5,CGGTCTTA,-0.249
6,AATGTTAC,-0.0328
7,AGCTTCTC,-0.0219
8,CGGACAAA,0.107
9,GTCACGAA,-0.00388
10,GAACTTAC,-0.118
11,GGTGGCGA,-0.16
12,CACATACC,-0.218
13,CGATGTGA,-0.0423
14,ATACCTGG,-0.115
15,CAGTGAGA,-0.124
16,AACGTTGT,0.0521
17,CGAAGACG,-0.0796
18,CGCTTTTC,-0.0275
19,GACAAGAC,0.154
20,TCCAAACA,-0.079
21,CTTTTACC,0.0111
22,CTCTGGCA,-0.0135

row,Sequence,PBM E-score
1,CTGTTGTC,0.0877
2,TAAGATAA,0.00597
3,TTCTTCAA,-0.037
4,AATCAGCC,-0.165
5,ACAGGGTC,0.402
6,AGGGTACA,0.181
7,ATCTTGAA,0.0333
8,GTTTATGA,0.00539
9,CGTCTTAA,-0.0213
10,ACGGTAGT,-0.203
11,AAGGTGTC,-0.0243
12,GCCCACAC,0.114
13,CGCAGGAG,-0.0171
14,AATAGGGG,0.189
15,AAACGCTG,-0.211
16,ATTAGGGA,-0.0191
17,CTATGCTC,-0.0692
18,CTTCCTTC,-0.13
19,CATACTTC,-0.148
20,AGAAAGAT,0.106
